According to publication PMC10089156:
Results are given in words; binding and its absence hold for the method and conditions named. Binding seen in cells or lysates may run through a third protein. For some of these results: Binding calls can cover weak binding; strength is not graded here. For some of these results: Where a sequence is shown, tags or fusion partners need not be part of it.

Experiments:
[1] = biological target: T1, AtEDS1-nVenus (Arabidopsis) (UniProt Q9SU72); experiment: split reporter; BiFC (cCFP + nVenus), 35S promoter-driven constructs Agro-infiltrated into N. benthamiana epss leaves (third component co-expressed, e.g. AtSAG101-Flag), Pf0-1 XopQ infiltrated at 48 hpi, imaged 4 to 6 h later; cells with YFP signal in nuclei or PM/cytoplasm counted
T1 sequence: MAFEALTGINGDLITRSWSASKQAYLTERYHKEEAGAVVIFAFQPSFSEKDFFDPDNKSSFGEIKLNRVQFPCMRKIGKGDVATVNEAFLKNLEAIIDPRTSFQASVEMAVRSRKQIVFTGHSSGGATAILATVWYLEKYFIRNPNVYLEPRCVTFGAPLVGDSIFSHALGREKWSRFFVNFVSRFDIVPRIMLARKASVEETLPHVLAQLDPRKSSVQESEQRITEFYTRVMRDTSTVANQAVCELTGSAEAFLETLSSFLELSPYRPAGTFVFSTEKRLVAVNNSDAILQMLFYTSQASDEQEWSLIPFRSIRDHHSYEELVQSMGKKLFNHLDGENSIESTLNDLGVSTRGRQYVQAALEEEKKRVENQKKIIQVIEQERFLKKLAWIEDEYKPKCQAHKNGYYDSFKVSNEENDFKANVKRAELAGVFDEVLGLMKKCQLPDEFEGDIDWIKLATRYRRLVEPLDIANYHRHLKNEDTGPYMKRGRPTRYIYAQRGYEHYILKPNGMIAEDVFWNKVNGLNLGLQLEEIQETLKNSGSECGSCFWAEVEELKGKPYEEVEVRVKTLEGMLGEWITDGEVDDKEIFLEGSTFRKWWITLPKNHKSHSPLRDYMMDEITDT

[2] = biological target: NRG1.2-FLAG (Arabidopsis); experiment: co-IP + native gel or EMSA; anti-FLAG IP of NRG1.2-FLAG from Arabidopsis leaf lysates after Pf0-1 AvrRps4 (8 hpi) or β-estradiol with or without Pf0-1 AvrRps4^EEAA, 3xFLAG peptide elution products resolved by BN-PAGE (3 to 12% Bis-Tris) and western blot
[3] = biological target: NRG1.2-FLAG (Arabidopsis); experiment: co-IP; anti-FLAG M2 affinity gel IP of NRG1.2-FLAG from Arabidopsis leaf lysates (100 mM HEPES pH 7.5, 300 mM NaCl, 5 mM MgCl2, 0.5% NP-40 substitute, 10% glycerol, 4 °C), 3xFLAG peptide elution, SDS-PAGE and western blot; leaves with recognised effector: Pf0-1 AvrRps4 (4 and 8 hpi), β-estradiol-induced AvrRps4-mCherry, or β-estradiol with Pf0-1 AvrRps4^EEAA
[4] = biological target: NRG1.2-FLAG (Arabidopsis); experiment: co-IP; as a1, but leaves without recognised effector: uninfiltrated (preactivation), MgCl2 mock or Pf0-1 AvrRps4^EEAA
[5] = biological target: AtNRG1.1-cCFP (Arabidopsis); experiment: split reporter; BiFC (cCFP + nVenus) in N. benthamiana epss leaves in the absence of an effector (Pf0-1 EV or mock)
[6] = biological target: AtNRG1.1-cCFP (Arabidopsis); experiment: split reporter; BiFC (cCFP + nVenus), 35S promoter-driven constructs Agro-infiltrated into N. benthamiana epss leaves (third component co-expressed, e.g. AtSAG101-Flag), Pf0-1 XopQ infiltrated at 48 hpi, imaged 4 to 6 h later; cells with YFP signal in nuclei or PM/cytoplasm counted
[7] = biological target: AtNRG1.1^EEAA-cCFP (Arabidopsis); experiment: as above
[8] = biological target: NRG1.2^EEAA-FLAG (Arabidopsis); experiment: co-IP; anti-FLAG M2 affinity gel IP from lysates of N. benthamiana leaves transiently co-expressing NRG1.2^EEAA-FLAG, EDS1-V5, SAG101-Myc and the TIR-only protein RBA1
[9] = biological target: NRG1.2^EEAA-FLAG (Arabidopsis); experiment: condition: only coexpressed with enzymatically inactive RBA1^E86A instead of RBA1; co-IP; as a8, but co-expressed with the enzymatically inactive NADase mutant RBA1^E86A instead of RBA1
[10] = biological target: NRG1.1-cCFP (Arabidopsis stable line) (Arabidopsis); experiment: split reporter; BiFC (cCFP + nVenus) in leaves of native promoter-driven Arabidopsis stable lines, live cell imaging 4 to 6 h after Pf0-1 AvrRps4
[11] = biological target: NRG1.1-cCFP (Arabidopsis stable line) (Arabidopsis); experiment: split reporter; BiFC (cCFP + nVenus) in leaves of Arabidopsis stable lines in the absence of an effector (Pf0-1 EV or mock)

**Q.** How did the binding [1] turn out when AtSAG101-cCFP (from UniProt Q4F883) was run?
**A.** Its binding is “binds”.

B1: EDS1-V5 (protein, UniProt Q9SU72 1-623)
chain: T1 sequence
**Q.** For B1, which binding [2] is on record?
**A.** The binding was “binds”.

**Q.** What about the binding [3] of the same molecule?
**A.** The binding was “binds”.

**Q.** What about the binding [4] of the same molecule?
**A.** The binding was “binds weakly”.

B2: AtEDS1-nVenus (protein, UniProt Q9SU72 1-623)
chain: T1 sequence
**Q.** B2 was tested. Which binding [5] did it give?
**A.** Its binding is “no binding (only in the absence of an effector)”.

**Q.** And the binding [6]?
**A.** The binding was “binds”.

**Q.** What about the binding [7] of the same molecule?
**A.** The binding was “binds”.

B3: EDS1-V5 (N. benthamiana transient) (protein, UniProt Q9SU72 1-623)
chain: T1 sequence
**Q.** What does the source list for B3?
**A.** binding [8]: binds; binding [9]: no binding

B4: SAG101-Myc (protein, UniProt Q4F883 28-537)
chain: KILEIHNPPYSNHDPGLQVSKKKKDSGLEFQIHREEKFTLVVFSAPPICRSSSSDSTLLHVKDKENPFPFLCSENNPSFSLHTPAFNLFTSASTSLTYLKSELLQTLKSEKPVIITGAALGGSVASLYTLWLLETIEPTLKRPLCITFGSPLIGDASLQQILENSVRNSCFLHVVSAQTRIKMDFFKPFGTFLICFDSGCVCIEDHVAVTELLNGVHDSGLVDYSQVLNRLDQSMLSLADSRLIPEDVIKGIEKRAEMKNLRFDMMFKKLNDMKISMAYIEWYKKKCKEVKIGYYDRFKTQLAFPSKEFDINIKNHHKSELNRFWKSVVEEVERRPQSDASILKRRFLFSGNNYRRMIEPLDIAEYYLEGRKEYRTTGRSHHYVMLEKWFGMESILIEKERCKKRDLSDLLTFDSCFWAEVEDSLIVINQLNTTVGMRDDVREVLTRKLVEFEGYVWEIITKREVSPEIFLEESSFMKWWKEYKKIKGFNSSYLTEFMNTRKYESYGKSQ
**Q.** How did the binding [8] turn out when B4 was run?
**A.** Its binding is “binds”.

**Q.** And the binding [9]?
**A.** The binding was “no binding”.

B5: SAG101-nVenus (Arabidopsis stable line) (protein, UniProt Q4F883 28-537)
chain: B4 chain
**Q.** What does the source list for B5?
**A.** binding [10]: binds; binding [11]: no binding (only in the absence of an effector)
